Data as given in US20250345345A1, “METHODS FOR THE TREATMENT OF NEUROLOGICAL DISORDERS” (Praxis Precision Medicines, Inc., priority 2022, published 2025).
For at least one compound, name, drawing or mass did not settle the structure.

Assays:
[1] = system: extrasynaptic and synaptic human GABAA receptors; assay: Positive allosteric modulation of extrasynaptic versus synaptic GABAA receptors; assay type: biochemical
[2] = system: PTZ-evoked seizures in CD-1 male mice; assay: PTZ-evoked seizure model in mice (Example 1); assay type: in vivo; settings: 30 minutes prior to PTZ 120 mg/kg s.c.; for number of tonic seizures as compared to a vehicle control: FIG. 1; for number of clonic seizures as compared to a vehicle control: FIG. 2

## COC[C@@]1(O)CC[C@@]2(C)[C@@H](CC[C@@H]3[C@@H]2CC[C@]2(C)[C@@H](C(=O)Cn4ccnc4)CC[C@@H]32)C1 [Compound 1, 3α-Hydroxy-3β-methoxymethyl-21-(1′-imidazolyl)-5α-pregnan-20-one]
[1]
  preference for extrasynaptic over synaptic human GABAA receptors in terms of efficacy: ~10.5 fold
  preference for extrasynaptic over synaptic human GABAA receptors in terms of potency: ~6 fold
[2]; 3 mg/kg p.o., p<0.05
  number of tonic seizures as compared to a vehicle control: significantly reduced
[2]; 10 mg/kg p.o., p<0.01
  number of tonic seizures as compared to a vehicle control: eliminated seizure activity
  number of clonic seizures as compared to a vehicle control: significantly reduced
[2]; 30 mg/kg p.o., p<0.01
  number of tonic seizures as compared to a vehicle control: eliminated seizure activity
  number of clonic seizures as compared to a vehicle control: eliminated seizure activity
